Laboratory results: PubChem BioAssay AID1224826 (NIAID, 2016)
In all, the deposit lists about 17,000 reagents; shown is a part drawn at random. About 1,110 of them (6.6%) were called active. 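Active means lowered or raised reporter signal; replicate intensities are raw and not normalised per plate.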 The numbers tell different reagents against one gene apart. Some reagents were tested in more than one well and are listed for each. Not all columns of the deposit are shown.

Screen: 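Knock-downs that raise or lower Tnf reporter signal after endotoxin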 (primary screen)
Cells: RAW264.7 G9 macrophages from mouse bearing reporters for p65 (GFP) and the Tnf promoter (mCherry)
Reagents: siRNA pool against mouse genes, 100 nM
Time to read-out: 16 h of LPS stimulation, after 2 days of siRNA transfection
Treatment: bacterial lipopolysaccharide (Salmonella minnesota R595), 10 ng/ml
Read-out: 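Imaged Tnf reporter mCherry in nuclei, minus background, normalised per plate to the median and expressed as robust z-scores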
Direction: Tnf reporter robust z-score: higher = stronger Tnf promoter reporter signal after LPS
Active means: 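a well counts as active at a score of -1.3 or below (Tlr4 knock-down control median) or above 3 (raised signal); controls and wells holding fewer than 50 cells are excluded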
Meaning of the calls: active = Tnf reporter clearly lowered or raised; inactive = no clear change in Tnf reporter

For Zfp386, the entry reads Tnf reporter robust z-score 1.75; fewer than 50 cells in well enough cells in well; inactive. Usp9x scored Tnf reporter robust z-score 0.72; fewer than 50 cells in well enough cells in well; inactive. Irf3 gave Tnf reporter robust z-score -0.81; fewer than 50 cells in well enough cells in well; inactive. With knock-down of Mrpl1, the record shows Tnf reporter robust z-score -0.82; fewer than 50 cells in well enough cells in well; inactive. Against Lrrc8c, the values are Tnf reporter robust z-score 0.12; fewer than 50 cells in well enough cells in well; inactive. For Letm1, the values are Tnf reporter robust z-score 1.8; fewer than 50 cells in well enough cells in well; inactive.

With knock-down of Ubr2, the record shows Tnf reporter robust z-score 0.66; fewer than 50 cells in well enough cells in well; inactive. After knock-down of Nrsn1 the results were Tnf reporter robust z-score -0.55; fewer than 50 cells in well enough cells in well; inactive. Against Mgme1 the deposit lists Tnf reporter robust z-score -0.11; fewer than 50 cells in well enough cells in well; inactive. Silencing of Kera came out at: Tnf reporter robust z-score 0.59; fewer than 50 cells in well enough cells in well; inactive. Against Atg2b #1, the entry reads Tnf reporter robust z-score 0.95; fewer than 50 cells in well enough cells in well; inactive. Atg2b #2 showed Tnf reporter robust z-score 1.61; fewer than 50 cells in well enough cells in well; inactive.

2 entries from above, set out differently.
target,pool no.,Tnf reporter robust z-score,fewer than 50 cells in well,outcome
Mgme1,1,-0.11,enough cells in well,inactive
Kera,1,0.59,enough cells in well,inactive

The listing continues.
Against Crlf3, the entry reads Tnf reporter robust z-score 0.63; fewer than 50 cells in well enough cells in well; inactive. With knock-down of Fpgs the results were Tnf reporter robust z-score -0.63; fewer than 50 cells in well enough cells in well; inactive. Against Nrf1, the values are Tnf reporter robust z-score -0.16; fewer than 50 cells in well enough cells in well; inactive. Depletion of Pramel52-ps gave: Tnf reporter robust z-score -0.14; fewer than 50 cells in well enough cells in well; inactive. Silencing of Or10h1 came out at: Tnf reporter robust z-score 0.42; fewer than 50 cells in well enough cells in well; inactive. For Sptssa, the values are Tnf reporter robust z-score 0.59; fewer than 50 cells in well enough cells in well; inactive.

For Sirt1, the entry reads Tnf reporter robust z-score -1.2; fewer than 50 cells in well enough cells in well; inactive. For Mdn1, the values are Tnf reporter robust z-score 0.39; fewer than 50 cells in well enough cells in well; inactive. Stab2 showed Tnf reporter robust z-score 0.1; fewer than 50 cells in well enough cells in well; inactive. Depletion of Mtnr1a came out at: Tnf reporter robust z-score 0.14; fewer than 50 cells in well enough cells in well; inactive. For Pdlim5 the deposit lists Tnf reporter robust z-score 0.78; fewer than 50 cells in well enough cells in well; inactive. For Pdlim5, the values are Tnf reporter robust z-score 0.18; fewer than 50 cells in well enough cells in well; inactive.

Cd209b showed Tnf reporter robust z-score 0.21; fewer than 50 cells in well enough cells in well; inactive. Against Fign the deposit lists Tnf reporter robust z-score 0.3; fewer than 50 cells in well enough cells in well; inactive. Silencing of Camk2b resulted in: Tnf reporter robust z-score 0.2; fewer than 50 cells in well enough cells in well; inactive.
